From article PMC11395162
Results are given in words; binding and its absence hold for the method and conditions named. In cells and extracts the contact can be indirect. Some binding calls cover weakened binding; strength is not graded here. For part of these data: Tags and fused reporters may be left off the sequences shown.

Chains of the proteins cited; added tags and fusions are not shown. Lines headed by an entry give the natural chain unless they say otherwise; changes in a name come on top.
UniProt Q9UNE7: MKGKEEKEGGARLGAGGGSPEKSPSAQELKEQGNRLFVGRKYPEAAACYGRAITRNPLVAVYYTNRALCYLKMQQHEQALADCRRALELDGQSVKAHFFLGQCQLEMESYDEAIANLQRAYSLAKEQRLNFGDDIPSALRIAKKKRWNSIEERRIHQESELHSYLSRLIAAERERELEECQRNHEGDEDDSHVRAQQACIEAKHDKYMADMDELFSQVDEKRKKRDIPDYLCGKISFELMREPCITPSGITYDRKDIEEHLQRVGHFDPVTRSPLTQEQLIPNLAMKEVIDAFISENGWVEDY

Columns and labels:
[1] = biological target: T1, UHRF1, full length, transfected partner of the STUB1 fragments (Fig. 1G, I) (human) (UniProt Q96T88); experiment: co-IP; HEK293T cells transfected with tagged full-length or truncated UHRF1 and STUB1; lysates immunoprecipitated with anti-Flag or anti-HA antibodies on A/G magnetic beads, 4 °C, 12 h; immunoblot
T1 sequence: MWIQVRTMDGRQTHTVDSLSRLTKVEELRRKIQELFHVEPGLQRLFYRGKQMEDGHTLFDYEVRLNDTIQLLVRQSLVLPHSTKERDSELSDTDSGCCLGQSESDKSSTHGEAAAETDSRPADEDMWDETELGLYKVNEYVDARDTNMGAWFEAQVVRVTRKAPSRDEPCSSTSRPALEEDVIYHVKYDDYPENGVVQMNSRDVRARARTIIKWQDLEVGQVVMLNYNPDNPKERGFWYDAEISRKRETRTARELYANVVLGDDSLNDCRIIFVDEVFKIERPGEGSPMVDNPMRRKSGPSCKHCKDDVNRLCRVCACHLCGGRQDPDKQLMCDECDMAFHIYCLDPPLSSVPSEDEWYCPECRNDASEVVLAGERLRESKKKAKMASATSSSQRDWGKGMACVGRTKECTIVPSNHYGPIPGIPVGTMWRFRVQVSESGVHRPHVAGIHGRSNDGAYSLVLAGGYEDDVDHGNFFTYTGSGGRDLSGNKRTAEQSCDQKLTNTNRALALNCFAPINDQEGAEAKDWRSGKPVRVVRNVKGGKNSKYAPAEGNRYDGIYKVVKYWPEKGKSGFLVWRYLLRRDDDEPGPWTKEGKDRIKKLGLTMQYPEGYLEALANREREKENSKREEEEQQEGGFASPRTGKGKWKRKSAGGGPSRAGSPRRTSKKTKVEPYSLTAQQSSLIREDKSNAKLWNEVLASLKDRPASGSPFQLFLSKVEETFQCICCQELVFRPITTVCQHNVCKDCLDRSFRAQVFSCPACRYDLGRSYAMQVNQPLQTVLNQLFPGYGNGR

[2] = biological target: T2, Ubiquitin like with PHD and ring finger domains 1 (UHRF1), Flag-tagged, full length (human) (UniProt Q96T88); experiment: as above
T2 sequence: T1 sequence

[3] = biological target: T3, UHRF1 SRA domain (aa417-584), truncated fragment (human) (UniProt Q96T88); experiment: as above
T3 sequence: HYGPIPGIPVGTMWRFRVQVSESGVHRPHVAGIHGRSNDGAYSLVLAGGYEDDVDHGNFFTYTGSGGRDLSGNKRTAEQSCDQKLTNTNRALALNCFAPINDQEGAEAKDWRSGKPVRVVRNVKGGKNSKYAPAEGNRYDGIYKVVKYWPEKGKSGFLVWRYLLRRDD

[4] = biological target: T4, UHRF1 RING domain (aa724-793), truncated fragment (human) (UniProt Q96T88); experiment: as above
T4 sequence: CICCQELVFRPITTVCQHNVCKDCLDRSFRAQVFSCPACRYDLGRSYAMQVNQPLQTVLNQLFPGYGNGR

[5] = biological target: T5, UHRF1, endogenous in TFK1 and HuCCT1 cells (human (endogenous in TFK1 and HuCCT1)) (UniProt Q96T88); experiment: co-IP; endogenous proteins in TFK1 and HuCCT1 cells; IP with UHRF1/STUB1 antibody, IgG as control; immunoblot
T5 sequence: T1 sequence

GST-UHRF1 (human) = biological target: T6, GST-UHRF1 (human) (UniProt Q96T88); experiment: pull-down; GST, GST-STUB1 or GST-UHRF1 from E. coli BL21 on GST magnetic beads, incubated with HEK293T cell lysate at 4 °C for 4 h; immunoblot; only the target purified
T6 sequence: T1 sequence

STUB1 TPR domain (aa26-127), truncated fragment (from UniProt Q9UNE7 26-127) (domain or fragment)
binding [1]: binds

STIP1 homology and U-Box containing protein 1 (STUB1), HA-tagged, full length (from UniProt Q9UNE7 1-303)
binding [2]: binds | binding [3]: binds | binding [4]: binds

STUB1, endogenous (from UniProt Q9UNE7 1-303)
binding [5]: binds

STUB1 in HEK293T cell lysate (prey of the GST pull-down) (from UniProt Q9UNE7 1-303)
binding (GST-UHRF1 (human)): binds
